Structures can show the parent of a compound that is named as a salt. The list shows a part of the results. Rule as the data show it: active = 0.7 or more and inactive = the rest. Single values are uncertain, as repeats are few or missing.

In the experiment the test system is MiaPaCa-2 CLSA-25. The experiment is described as follows: cell death relative to DMSO vehicle (fraction); higher = more cytotoxic. As to conditions: 5 µM; treatment time 48 h; medium cystine 25 µM.
As for `O=C1OCCN1/N=C/c1ccc([N+](=O)[O-])o1` [Furazolidone], the cell death is inactive: 0.527. The result for `N=C(N)NCCC[C@H](N)C(=O)O` [L-Arginine] reads active: 0.835.

`COC1=C2C[C@@H](C)C[C@H](OC)[C@H](O)[C@@H](C)/C=C(\C)[C@H](OC(N)=O)[C@@H](OC)/C=C\C=C(/C)C(=O)NC(=CC1=O)C2=O` [Geldanamycin]: the cell death was inactive: 0.275. The figure for `C[C@H](CCC(=O)NCCS(=O)(=O)O)[C@H]1CC[C@H]2[C@@H]3[C@H](O)C[C@@H]4C[C@H](O)CC[C@]4(C)[C@H]3C[C@H](O)[C@]12C` [Taurocholic acid sodium salt hydrate] is inactive: 0.152. The result for `CC(C)(CO)[C@@H](O)C(=O)NCCC(=O)NCCSSCCNC(=O)CCNC(=O)[C@H](O)C(C)(C)CO` [D-Pantethine] reads inactive: 0.0974.

`O=C(O)c1cc(O)cc(O)c1` [3,5-Dihydroxybenzoic acid]: the cell death is inactive: 0.48. The result for `O=c1cc(-c2ccccc2)oc2cc(O)c(O)c(O)c12` [Baicalein] reads inactive: 0.0621; that for `CCNC(=O)c1[nH]nc(-c2cc(Cl)c(O)cc2O)c1-c1ccc(OC)cc1`, inactive: 0.455; that for `CC(O)c1ccc(S(=O)(=O)NC(=O)NC2CCCCC2)cc1` (configuration not stated) [Hydroxyhexamide], inactive: 0.0235. The result for `Nc1nc(=O)c2c([nH]1)NCC(CNc1ccc(C(=O)N[C@@H](CCC(=O)O)C(=O)O)cc1)N2C=O` (some centres not stated) [Calcium folinate] reads inactive: 0.679.

Regarding `CCc1cnc(N2CCC(c3nc(COc4ccc(-n5cnnn5)cc4)cs3)CC2)nc1`, the cell death was inactive: 0.524.

`CC(C)(Oc1ccc(C(=O)c2ccc(Cl)cc2)cc1)C(=O)O` [Fenofibric acid]: the cell death was inactive: 0.0431. As for `NCCCC[C@H](N[C@@H](CCc1ccccc1)C(=O)O)C(=O)N1CCC[C@H]1C(=O)O` [Lisinopril dihydrate], the cell death is inactive: 0.0522.

Consider `O=C(/C=C/c1ccc2ccccc2n1)c1ccncc1`, for which the cell death was active: 0.745.

Regarding `NCCc1ccc(O)cc1` [Tyramine], the cell death is inactive: -0.0206. Regarding `CN1CCN(C(=O)C2C(C(=O)O)[C@H]3CC[C@@H]2O3)CC1` (some centres not stated), the cell death is inactive: 0.203.

For the molecule `CC(C)OC(=O)C(C)(C)Oc1ccc(C(=O)c2ccc(Cl)cc2)cc1` [Fenofibrate], the cell death was inactive: 0.0968. Take `N#Cc1ccc(Oc2ccc3c(c2)COB3O)cc1` [Crisaborole]: the cell death was inactive: -0.00401. As to `COc1ccc(S(=O)(=O)Nc2nc(-c3cccc([N+](=O)[O-])c3)cs2)cc1OC`, the cell death is inactive: 0.151. The result for `Cc1cc(-c2nc(-c3ccc(OC(F)(F)F)cc3)no2)nn1Cc1ccnc(N2CCN(C3CC3)CC2)c1` reads inactive: -0.00321; that for `CSCC[C@H](N)C(=O)O` [L-Methionine], inactive: 0.477; that for `c1ccc(-c2[nH]ncc2-c2ccnc3ccccc23)nc1`, inactive: 0.213. Consider `COC(=O)[C@]12CCC(C)(C)C[C@H]1[C@H]1C(=O)C=C3[C@@]4(C)C=C(C#N)C(=O)C(C)(C)[C@@H]4CC[C@@]3(C)[C@]1(C)CC2` [Bardoxolone Methyl], for which the cell death was active: 0.933. Take `Oc1cc(O)c2c(c1)O[C@H](c1ccc(O)c(O)c1)[C@@H](O)C2` [(+)-Catechin Hydrate]: the cell death was inactive: 0.267. The result for `CC(C)c1c(C(=O)Nc2ccccc2)c(-c2ccccc2)c(-c2ccc(F)cc2)n1CC[C@@H](O)C[C@@H](O)CC(=O)O` [Atorvastatin Calcium] reads inactive: 0.464; that for `CC(C)[C@H]1CC[C@H](C(=O)N[C@H](Cc2ccccc2)C(=O)O)CC1` [Nateglinide], inactive: 0.175; that for `Cc1cc(CC(=O)O)n(C)c1C(=O)c1ccc(Cl)cc1` [Zomepirac Sodium], inactive: 0.17. Consider `O=c1c(-c2ccc(O)cc2)coc2cc(O[C@@H]3O[C@H](CO)[C@@H](O)[C@H](O)[C@H]3O)ccc12` [Daidzin], for which the cell death was inactive: -0.00054.

Regarding `CC(=O)O[C@H](CC(=O)O)C[N+](C)(C)C` [O-Acetyl-L-carnitine hydrochloride], the cell death was inactive: 0.0586. Consider `Cc1[nH]c(=O)c(C#N)cc1-c1ccncc1` [Milrinone], for which the cell death is inactive: 0.531. The figure for `CN1CCN(Cc2ccc(-c3cnc4[nH]cc(-c5ccc6[nH]ccc6c5)c4c3)cc2)CC1` is active: 0.849; for `COc1cc2c(c(OC)c1OC)-c1ccc(OC)c(=O)cc1[C@@H](NC(C)=O)CC2` [Colchicine] it is inactive: 0.457.

The values are drawn from the supplement of paper PMC12872613.
